Reference: PubChem BioAssay AID504786 (Drosophila RNAi Screening Center, 2011)

- Screen: 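Fly genes required for HIF-dependent transcription when hypoxia is mimicked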 (primary screen)
- System: Drosophila S2 cells with a stable HIF luciferase reporter
- Reagent: long dsRNA against Drosophila genes, about 0.2 µg dsRNA per well of a 384-well plate
- Time to read-out: three days of knock-down, then 20 h of DFO before reading
- Challenge: desferrioxamine (DFO) at 100 µM, an iron chelator that mimics hypoxia, for 20 h
- Read-out: 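Firefly luciferase driven by the mouse ldh-a hypoxia-response element, measured after 20 h of 100 µM DFO; z-scores per plate, higher means more signal lost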
- Scale: z-score: higher = stronger loss of HIF reporter signal
The screen tested about 21,000 reagents; this is a random part of those with a known target gene and a result. 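Primary screen; positive scores mean lost reporter signal, so the sign may be inverted from the usual convention.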 Names joined by + are all predicted targets of the reagent.

gene | dsRNA | z-score, replicate 1 | z-score, replicate 2
MFS9 (Major Facilitator Superfamily Transporter 9) | DRSC15560 | -0.3 | -0.2
Acsx4 (Acyl-CoA synthetase X4) | DRSC14311 | -0.7 | -0.2
Mpc1 | DRSC14770 | -0.2 | -0.1
Dronc (Death regulator Nedd2-like caspase) | DRSC11231 | -0.2 | 0.3
CG5969 | DRSC11789 | -0.3 | 1.8
vimar (visceral mesodermal armadillo-repeats) | DRSC05026 | -0.3 | -0.1
CG7519 | DRSC11834 | -0.3 | -0.1
CG12436 (retired record) | DRSC09869 | -0.2 | 0.4
CG12436 (retired record) | DRSC09885 | -0.4 | -0.6
CG4627 | DRSC06873 | -0.5 | -0.6
Octbeta2R (Octopamine beta2 receptor) | DRSC15350 | -0.5 | -0.7
Octbeta2R (Octopamine beta2 receptor) | DRSC16165 | -0.4 | -0.6
CG1888 | DRSC06797 | -0.3 | -0.6
Cpr65Ax2 + Cpr65Ax1 | DRSC10341 | -0.3 | -0.2
Cpr65Ax2 + Cpr65Ax1 | DRSC10344 | -0.4 | -0.9
CG13856 | DRSC14706 | -0.3 | 0.2
CG3246 | DRSC00584 | -0.1 | 0.6
CG12481 | DRSC19461 | -0.3 | 0
STUB1 (STIP1 homology and U-box containing protein 1) | DRSC03282 | -0.2 | -0.3
Usp12-46 (Ubiquitin-specific protease 12/46) | DRSC16175 | -0.3 | -0.3
Ubc4 (Ubiquitin conjugating enzyme 4) | DRSC11312 | -0.4 | -0.1
brm (brahma) | DRSC11330 | 9.1 | 7.8
inaF-B | DRSC18903 | -0.2 | -0.2
mthl14 (methuselah-like 14) | DRSC07865 | -0.2 | -0.3
s-cup (stanley-cup) | DRSC06277 | 0.2 | 0.1
s-cup (stanley-cup) | DRSC06278 | -0.2 | -0.6
l(2)gd1 (lethal (2) giant discs 1) | DRSC02773 | -0.4 | -0.6
Pcd (pterin-4a-carbinolamine dehydratase) | DRSC16785 | -0.4 | -0.3
Rab9Fb (Rab at 9Fb) | DRSC19854 | -0.3 | 0
Arp6 (Actin-related protein 6) | DRSC19326 | 0 | -0.7
NaPi-T (Na[+]-dependent inorganic phosphate cotransporter) | DRSC07476 | -0.4 | -0.5
CG17290 | DRSC06662 | -0.3 | -0.5
CG8997 | DRSC01900 | -0.3 | -0.4
p47 | DRSC06046 | -0.1 | 1.1
CG12971 | DRSC11681 | 0.6 | 0.3
phr6-4 ((6-4)-photolyase) | DRSC03589 | -0.3 | 0
GATAd | DRSC02803 | -0.2 | -0.4
CG8910 | DRSC07414 | -0.2 | -0.1
Dhrs4 (Dehydrogenase/reductase 4) | DRSC09773 | -0.1 | -0.3
Pal1 + Pdrg1 | DRSC06587 | -0.3 | -0.1
t-Grip84 (testis-specific gamma-tubulin ring protein 84) | DRSC10904 | -0.2 | 0.4
RhoGAP15B (Rho GTPase activating protein at 15B) | DRSC19924 | -0.2 | -0.3
RhoGAP15B (Rho GTPase activating protein at 15B) | DRSC19925 | -0.2 | -0.2
Dys (Dystrophin) | DRSC13360 | -0.4 | 0.2
Dys (Dystrophin) | DRSC13364 | -0.5 | -0.3
Dys (Dystrophin) | DRSC15260 | -0.7 | -0.4
Dys (Dystrophin) | DRSC16218 | -0.5 | -0.1
Dys (Dystrophin) | DRSC16219 | -0.4 | -0.6
Dys (Dystrophin) | DRSC16220 | -0.1 | -0.5
Dys (Dystrophin) | DRSC16935 | -0.3 | -0.2
CG11226 | DRSC11639 | -0.3 | -0.4
CG13055 | DRSC09936 | -0.2 | 0.2
CG2993 | DRSC14284 | -0.3 | -0.6
CG2993 | DRSC15457 | -0.1 | 0.2
CG2533 | DRSC19855 | -0.1 | -0.3

Look-ups from above:
Under “z-score, replicate 2”, CG2993 [DRSC15457] is entered as 0.2
mthl14 (methuselah-like 14) [DRSC07865], z-score, replicate 1 → -0.2
Value of vimar (visceral mesodermal armadillo-repeats) [DRSC05026] in “z-score, replicate 1”: -0.3
Under “z-score, replicate 2”, Dys (Dystrophin) [DRSC16218] reads -0.1
Entry for CG12971 [DRSC11681] under “z-score, replicate 1”: 0.6
NaPi-T (Na[+]-dependent inorganic phosphate cotransporter) [DRSC07476], z-score, replicate 2: -0.5

The listing continues:
gene | dsRNA | z-score, replicate 1 | z-score, replicate 2
Elo68beta (Elongase 68beta) | DRSC09860 | -0.4 | -0.5
CG6294 + CG6299 + CG15642 | DRSC19981 | -0.4 | -0.2
Boh2 (Buddy of Hmr 2) | DRSC02777 | -0.2 | 0
HDAC3 (Histone deacetylase 3) | DRSC12352 | 0.1 | 1
Trs33 (TRAPP subunit 33) | DRSC15990 | -0.6 | -0.8
alphaKap4 (alpha Karyopherin-4) | DRSC09823 | -0.4 | -0.4
Idgf1 (Imaginal disc growth factor 1) | DRSC03349 | -0.3 | -0.1
frma (fra mauro) | DRSC18297 | -0.3 | -0.1
Pmvk (Phosphomevalonate kinase) | DRSC02032 | -0.4 | -0.7
CG10628 | DRSC02080 | 0.1 | 0.5
PGRP-LB (Peptidoglycan recognition protein LB) | DRSC14926 | 0.3 | 0.3
CG8545 | DRSC07210 | 0 | 0.3
CG11381 | DRSC17780 | 1.7 | 0.7
Blos4 | DRSC10151 | -0.3 | -0.9
CG15549 | DRSC15087 | -0.2 | -0.6
CG11837 | DRSC14397 | -0.3 | 0.6
CG7377 | DRSC10830 | -0.2 | 0.4
Sac1 (Sac1 phosphatase) | DRSC08622 | -0.1 | -0.2
CG1999 | DRSC18199 | -0.3 | -0.1
scat (scattered) | DRSC02722 | -0.3 | -0.4
w-cup (world cup) | DRSC03048 | 0.1 | 0
clu (clueless) | DRSC07181 | 0 | -0.2
CG3502 + CG9863 | DRSC04578 | -0.4 | -0.2
Vps15 (Vacuolar protein sorting 15) | DRSC16553 | -0.3 | -0.6
rut (rutabaga) | DRSC20367 | 2.1 | 4.4
CG1532 | DRSC20516 | -0.4 | -0.4
dos | DRSC07992 | 5.3 | 4.4
dos | DRSC08713 | -0.4 | 0.7
